Publication PMC12276184
No constants are given. Whether binding was seen depends on the method and setting. In cells and extracts the contact can be indirect. Some results given as binding are weak or reduced against the parent protein; the word gives no strength. Sequences can lack the tags named with a protein.

Molecular target: T1, FLAG tagged YTHDF2 overexpressed in HEK293T cells (human) (UniProt Q9Y5A9)
T1 sequence: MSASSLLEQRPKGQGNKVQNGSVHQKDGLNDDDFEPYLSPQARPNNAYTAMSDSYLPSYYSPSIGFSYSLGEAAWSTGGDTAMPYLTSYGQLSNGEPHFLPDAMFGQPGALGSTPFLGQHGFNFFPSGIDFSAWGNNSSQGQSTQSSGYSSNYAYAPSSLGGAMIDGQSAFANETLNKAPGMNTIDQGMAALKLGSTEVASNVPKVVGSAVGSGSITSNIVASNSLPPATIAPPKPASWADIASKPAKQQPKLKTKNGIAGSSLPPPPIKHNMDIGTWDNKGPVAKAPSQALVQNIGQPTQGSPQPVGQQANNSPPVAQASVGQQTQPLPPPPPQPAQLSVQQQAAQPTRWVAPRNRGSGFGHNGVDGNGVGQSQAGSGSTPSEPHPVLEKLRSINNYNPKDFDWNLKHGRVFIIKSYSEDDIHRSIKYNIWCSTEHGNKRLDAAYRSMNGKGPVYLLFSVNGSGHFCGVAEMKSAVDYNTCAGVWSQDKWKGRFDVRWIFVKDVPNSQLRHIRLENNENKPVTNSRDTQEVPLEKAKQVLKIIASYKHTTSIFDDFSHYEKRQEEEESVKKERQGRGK
Test: co-IP; reciprocal co-immunoprecipitation from HEK293T cells overexpressing PLEK2 and YTHDF2; immunoblotting

binding: binds
B1: HA tagged PLEK2 overexpressed in HEK293T cells (protein, UniProt Q9NYT0 1-353)
chain: MEDGVLKEGFLVKRGHIVHNWKARWFILRQNTLVYYKLEGGRRVTPPKGRILLDGCTITCPCLEYENRPLLIKLKTQTSTEYFLEACSREERDAWAFEITGAIHAGQPGKVQQLHSLRNSFKLPPHISLHRIVDKMHDSNTGIRSSPNMEQGSTYKKTFLGSSLVDWLISNSFTASRLEAVTLASMLMEENFLRPVGVRSMGAIRSGDLAEQFLDDSTALYTFAESYKKKISPKEEISLSTVELSGTVVKQGYLAKQGHKRKNWKVRRFVLRKDPAFLHYYDPSKEENRPVGGFSLRGSLVSALEDNGVPTGVKGNVQGNLFKVITKDDTHYYIQASSKAERAEWIEAIKKLT
